The values below come from patent US20160222085A1 (CHILDREN S HOSPITAL OF PHILADELPHIA, published 2016).

For assay [1], the target named is FV-810 (FV-DT), Factor V with amino acids 811-1491 deleted from the B-domain (human). Put plainly: fluorescence anisotropy, displacement; human BR titrated into 30 nM OG488-BR, 20 nM FV-810, 50 uM PCPS, 25 C; competitor: OG488-BR. In general terms: Polarisation of emitted light reports the rotation of a fluorescent probe.
The target is the same in assay [2]. Put plainly: fluorescence anisotropy, competition; unlabeled FVBR titrated into Oregon Green 488 FVBR plus FVDT; competitor: Oregon Green 488 FVBR.
Assay [3] has the same target. Briefly: fluorescence anisotropy, displacement; unlabeled BR titrated into 30 nM OG488-BR, 20 nM FV-810, 50 uM PCPS; competitor: OG488-BR [inset].
For assay [4] the target is unchanged. Put plainly: fluorescence anisotropy, displacement; FVBR titrated into labeled active site-blocked FXa plus FVDT on PCPS liposomes; displaced ligand: labeled FXa.
Assay [5] has the same target. Put plainly: fluorescence anisotropy, competition; unlabeled TFPI peptide titrated into Oregon Green 488 FVBR plus FVDT; competitor: Oregon Green 488 FVBR.

These are yes or no findings as the source states them, for the method shown. Binding can be weak; no strength is given.

B1: Factor V basic region peptide (FVBR), amino acids 951-1008 of Factor V (peptide)
peptide: SRAWGESTPLANKPGKQSGHPKFPRVRHKSLQVRQDGGKSRLKKSQFLIKTRKKKKEK
notes: Expressed in E. coli as a SUMO fusion; also called FV basic peptide; BR peptide
Turning to B1, the binding entry in assay [1], in assay [2], in assay [3] and in assay [4] was “binds” throughout.

In the case of KKGFIQRISKGGLIKTKRKRKKQRVK [TFPI C-terminal tail peptide], in assay [5], the binding entry is “binds”.
